From publication PMC10474297
These are yes or no findings as the source states them, for the method shown. In cells and extracts the contact can be indirect. Some results given as binding are weak or reduced against the parent protein; the word gives no strength.

By UniProt entry, the sequences of proteins in these tests, tags left out. Where a name states a change or a piece, a line headed by the entry shows the natural chain unless it says otherwise. Chains listed by the source or under a name are the forms on record and can include a tag or linker. Residues count along the entry.
UniProt Q02224: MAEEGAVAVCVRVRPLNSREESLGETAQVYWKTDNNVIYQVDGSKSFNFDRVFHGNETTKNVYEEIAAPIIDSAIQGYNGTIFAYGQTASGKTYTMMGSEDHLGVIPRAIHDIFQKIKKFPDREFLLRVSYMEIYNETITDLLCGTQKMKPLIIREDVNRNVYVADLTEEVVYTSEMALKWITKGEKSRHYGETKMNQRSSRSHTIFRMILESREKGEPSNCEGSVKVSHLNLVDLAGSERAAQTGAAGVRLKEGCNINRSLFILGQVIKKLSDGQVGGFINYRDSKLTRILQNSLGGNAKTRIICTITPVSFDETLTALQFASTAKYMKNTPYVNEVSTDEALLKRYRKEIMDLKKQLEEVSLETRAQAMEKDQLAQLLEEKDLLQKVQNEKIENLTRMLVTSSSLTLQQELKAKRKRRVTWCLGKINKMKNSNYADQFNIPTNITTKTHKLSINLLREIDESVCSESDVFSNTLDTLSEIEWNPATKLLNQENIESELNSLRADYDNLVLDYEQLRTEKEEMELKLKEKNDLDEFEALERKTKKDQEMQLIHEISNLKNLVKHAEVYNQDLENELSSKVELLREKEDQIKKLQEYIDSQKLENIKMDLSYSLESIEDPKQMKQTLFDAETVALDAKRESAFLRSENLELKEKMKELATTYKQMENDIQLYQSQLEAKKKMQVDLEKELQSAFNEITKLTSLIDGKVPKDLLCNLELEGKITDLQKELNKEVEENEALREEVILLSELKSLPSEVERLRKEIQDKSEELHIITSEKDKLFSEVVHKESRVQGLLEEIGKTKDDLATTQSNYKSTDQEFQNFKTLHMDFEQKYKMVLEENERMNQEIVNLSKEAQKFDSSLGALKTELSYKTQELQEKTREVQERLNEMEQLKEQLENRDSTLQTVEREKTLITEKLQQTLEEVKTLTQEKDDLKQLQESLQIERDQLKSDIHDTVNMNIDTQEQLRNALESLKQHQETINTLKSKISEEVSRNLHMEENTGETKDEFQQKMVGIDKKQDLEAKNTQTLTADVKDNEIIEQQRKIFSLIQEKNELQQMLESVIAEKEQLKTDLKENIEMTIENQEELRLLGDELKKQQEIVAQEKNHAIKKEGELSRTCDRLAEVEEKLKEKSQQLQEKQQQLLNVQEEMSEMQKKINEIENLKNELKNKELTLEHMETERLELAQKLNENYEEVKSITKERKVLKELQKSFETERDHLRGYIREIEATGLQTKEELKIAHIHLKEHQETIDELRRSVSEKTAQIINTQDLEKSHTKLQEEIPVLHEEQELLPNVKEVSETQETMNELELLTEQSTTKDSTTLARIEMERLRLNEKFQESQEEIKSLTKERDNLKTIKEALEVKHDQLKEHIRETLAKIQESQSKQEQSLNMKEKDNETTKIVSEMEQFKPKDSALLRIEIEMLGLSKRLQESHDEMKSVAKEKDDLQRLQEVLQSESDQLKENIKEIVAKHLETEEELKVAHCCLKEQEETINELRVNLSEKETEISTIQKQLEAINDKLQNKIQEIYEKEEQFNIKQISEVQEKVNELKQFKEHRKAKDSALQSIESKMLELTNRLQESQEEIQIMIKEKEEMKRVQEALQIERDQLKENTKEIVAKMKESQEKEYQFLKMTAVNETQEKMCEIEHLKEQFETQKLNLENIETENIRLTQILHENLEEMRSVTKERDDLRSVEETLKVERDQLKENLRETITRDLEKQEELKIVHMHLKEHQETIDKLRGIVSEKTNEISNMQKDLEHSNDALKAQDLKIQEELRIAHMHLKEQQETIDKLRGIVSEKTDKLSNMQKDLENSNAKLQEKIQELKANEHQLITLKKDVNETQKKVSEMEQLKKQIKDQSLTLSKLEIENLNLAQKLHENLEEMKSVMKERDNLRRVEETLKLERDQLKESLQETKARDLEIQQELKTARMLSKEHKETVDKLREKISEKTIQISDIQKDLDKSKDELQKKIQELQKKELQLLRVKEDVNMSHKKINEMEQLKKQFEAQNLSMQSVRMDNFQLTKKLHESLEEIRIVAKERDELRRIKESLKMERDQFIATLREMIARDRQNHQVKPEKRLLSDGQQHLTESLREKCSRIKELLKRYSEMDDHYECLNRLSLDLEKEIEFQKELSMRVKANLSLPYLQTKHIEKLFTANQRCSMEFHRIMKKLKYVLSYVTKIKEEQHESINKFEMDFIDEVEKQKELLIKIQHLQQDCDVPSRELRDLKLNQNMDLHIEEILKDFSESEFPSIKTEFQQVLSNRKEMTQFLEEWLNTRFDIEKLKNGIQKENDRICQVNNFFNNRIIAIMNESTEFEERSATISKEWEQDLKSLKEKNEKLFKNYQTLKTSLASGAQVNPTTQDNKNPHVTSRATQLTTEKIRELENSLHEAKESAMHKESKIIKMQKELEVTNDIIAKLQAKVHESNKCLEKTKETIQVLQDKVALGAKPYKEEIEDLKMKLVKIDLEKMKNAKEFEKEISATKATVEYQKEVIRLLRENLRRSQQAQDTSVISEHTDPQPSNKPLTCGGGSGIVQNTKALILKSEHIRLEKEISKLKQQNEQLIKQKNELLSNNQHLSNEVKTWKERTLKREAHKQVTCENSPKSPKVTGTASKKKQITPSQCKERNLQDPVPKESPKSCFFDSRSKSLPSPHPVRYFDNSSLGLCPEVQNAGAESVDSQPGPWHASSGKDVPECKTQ
FLAG-GFP-CENP-E (1799-2701), C-terminal region of CENP-E: residues 1799-2701 of Q02224
CENP-E-MYC (1-859) T422A, N-terminal region of CENP-E with the T422A mutation (Q02224, form named): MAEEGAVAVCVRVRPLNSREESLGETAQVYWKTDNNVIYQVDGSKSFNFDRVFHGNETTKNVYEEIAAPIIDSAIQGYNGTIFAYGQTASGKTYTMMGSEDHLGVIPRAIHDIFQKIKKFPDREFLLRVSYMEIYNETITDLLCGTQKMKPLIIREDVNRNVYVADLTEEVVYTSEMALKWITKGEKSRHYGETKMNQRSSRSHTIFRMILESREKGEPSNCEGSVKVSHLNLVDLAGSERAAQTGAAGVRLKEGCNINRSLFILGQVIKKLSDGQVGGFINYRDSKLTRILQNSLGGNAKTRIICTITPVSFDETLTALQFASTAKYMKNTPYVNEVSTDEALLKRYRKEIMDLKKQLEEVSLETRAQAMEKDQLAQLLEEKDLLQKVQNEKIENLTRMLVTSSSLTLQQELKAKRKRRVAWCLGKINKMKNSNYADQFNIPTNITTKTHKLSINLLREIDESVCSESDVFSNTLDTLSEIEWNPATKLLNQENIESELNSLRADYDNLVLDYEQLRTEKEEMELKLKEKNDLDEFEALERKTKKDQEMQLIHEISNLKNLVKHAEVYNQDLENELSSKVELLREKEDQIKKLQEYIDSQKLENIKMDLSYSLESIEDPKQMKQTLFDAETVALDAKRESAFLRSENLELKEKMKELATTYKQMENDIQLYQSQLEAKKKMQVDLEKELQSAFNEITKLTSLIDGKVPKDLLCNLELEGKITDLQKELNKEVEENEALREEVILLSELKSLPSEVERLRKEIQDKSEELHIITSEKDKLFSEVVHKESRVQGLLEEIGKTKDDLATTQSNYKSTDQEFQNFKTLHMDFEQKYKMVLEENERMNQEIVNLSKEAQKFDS
UniProt Q9Y6G9: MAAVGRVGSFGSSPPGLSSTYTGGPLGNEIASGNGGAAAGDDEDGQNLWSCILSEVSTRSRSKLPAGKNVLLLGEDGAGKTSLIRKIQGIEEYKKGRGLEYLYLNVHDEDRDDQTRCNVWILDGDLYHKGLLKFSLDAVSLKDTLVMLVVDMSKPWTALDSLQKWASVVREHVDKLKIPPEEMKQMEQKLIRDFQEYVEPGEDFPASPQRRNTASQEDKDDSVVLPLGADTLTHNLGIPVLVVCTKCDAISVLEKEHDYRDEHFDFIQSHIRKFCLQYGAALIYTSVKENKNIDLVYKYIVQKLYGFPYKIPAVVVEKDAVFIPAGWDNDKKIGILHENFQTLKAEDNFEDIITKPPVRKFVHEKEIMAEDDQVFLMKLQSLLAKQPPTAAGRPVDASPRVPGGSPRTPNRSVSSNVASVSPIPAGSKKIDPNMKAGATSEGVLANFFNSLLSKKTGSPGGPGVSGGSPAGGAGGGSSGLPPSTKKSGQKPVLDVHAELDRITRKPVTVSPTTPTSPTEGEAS

Experiments:
[1] = biological target: FLAG-GFP-CENP-E (1799-2701), C-terminal region of CENP-E (UniProt Q02224); experiment: co-IP; the C-terminal domain FLAG-GFP-CENP-E-C immunoprecipitated (antibody on Dynabeads Protein G) from HEK 293 T cells co-transfected with GFP-CENP-E-N-MYC constructs for 48 h, 3.3 μM nocodazole 16 h; Triton X-100 buffer (25 mM HEPES, 100 mM NaCl, 1 mM EDTA, 10% glycerol, 1% Triton X-100), sonication
[2] = biological target: GFP-CENP-E WT (full-length) (UniProt Q02224); experiment: co-IP; full-length GFP-CENP-E immunoprecipitated (antibody on Dynabeads Protein G) from HEK 293 T cells transfected for 48 h, with control or CENP-E 3'UTR siRNA, 3.3 μM nocodazole 16 h; detergent-free lysis buffer (20 mM HEPES, 10 mM KCl, 1 mM MgCl2, 1 mM EDTA, 1 mM EGTA), freeze/thaw and …; blots for p150 and LIC

binding [1]	binding [2]	Substance
binds		CENP-E-MYC (1-859) T422A, N-terminal region of CENP-E with the T422A mutation (from UniProt Q02224 1-859) (domain or fragment)
binds		CENP-E-MYC (1-859) WT, N-terminal region of CENP-E (from UniProt Q02224 1-859) (domain or fragment)
	binds	dynactin subunit p150/Glued (from UniProt Q14203-1 1-1278)
	binds	dynein light intermediate chain 1 (LIC1) (from UniProt Q9Y6G9 1-523)
